Values from PubChem BioAssay AID504784 (Drosophila RNAi Screening Center, 2011).
In all, the deposit lists about 17,000 reagents; below is a random part of those that have a named target and a result. 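Each column is one replicate's B-score; the combined score over replicates was not deposited, so single values may mislead.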 The numbers tell different reagents against one gene apart.

Assay: 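Genome-wide knock-down for genes giving too much or too little stored lipid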 (primary screen)
System: Drosophila Kc167 embryonic cells
Knock-down reagent: long dsRNA against Drosophila genes, about 250 ng dsRNA per well
Time to read-out: 4 days
Challenge: cells fed 400 µM oleic acid bound to BSA
Read-out: 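Cells imaged and segmented; ratio of lipid droplet area to nuclear area, log-transformed, then normalised as a B-score over the screen; higher means more stored lipid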
Scale: droplet/nuclear area B-score: higher = more stored lipid (overstorage)

target gene | reagent | droplet/nuclear area B-score, replicate 1 | droplet/nuclear area B-score, replicate 2 | droplet/nuclear area B-score, replicate 3
Tti1 (GeneID 41189) | 1 | 2.7 | 0.00449 | –
GMF (GeneID 34963) | 1 | -0.00127 | -1.04 | –
Nepl14 (GeneID 42700) | 1 | -1.41 | 0.231 | –
unpg (GeneID 35942) | 1 | -0.714 | -0.0195 | –
CG11417 (GeneID 31083) | 1 | 0.459 | – | –
FipoQ (GeneID 43475) | 1 | 0.611 | -1.36 | –
ppk9 (GeneID 37498) | 1 | 1.16 | 0.0369 | –
ppk9 (GeneID 37498) | 2 | 0.358 | 2.48 | –
Gr22a (GeneID 117500) | 1 | 0.096 | 0.188 | –
meep (GeneID 261663) | 1 | -0.917 | -0.146 | –
CG9784 (GeneID 32629) | 1 | 0.142 | 0.632 | –
CG8534 (GeneID 41210) | 1 | -1.75 | 1.57 | –
CG15536 (GeneID 43610) | 1 | -0.14 | 0.732 | -1.46
CG15536 (GeneID 43610) | 2 | 0.162 | 1.31 | –
Bro (GeneID 38202) | 1 | -0.127 | 1.7 | –
CG2887 (GeneID 31978) | 1 | 1.08 | -0.392 | 1.21
Golgin104 (GeneID 39810) | 1 | -2.9 | -1.35 | 0.0215
CG10257 (GeneID 36671) | 1 | -1.42 | 0.93 | –
CHKov1 (GeneID 43067) | 1 | -0.853 | -1.1 | –
CHKov1 (GeneID 43067) | 2 | 1.64 | -1.45 | –
CHKov1 (GeneID 43067) | 3 | 0.0687 | 0.847 | –
CHKov1 (GeneID 43067) | 4 | 0.159 | 0.853 | –
CG6962 (GeneID 41436) | 1 | -0.0699 | 0.727 | –
Nemp (GeneID 32639) | 1 | 0.556 | 1.23 | –
CG32444 (GeneID 40406) | 1 | 1.28 | 0.228 | 1.62
CG14088 (GeneID 40098) | 1 | 1.01 | 2.18 | –
Cpr49Ah (GeneID 36354) | 1 | 0.553 | – | –
sca (GeneID 36411) | 1 | -1.03 | 1.36 | –
CG15480 (GeneID 34723) | 1 | -0.853 | 0.451 | –
Cyp6a19 (GeneID 36662) | 1 | -0.00516 | -1.15 | –

In a second layout: entries from further up
CHKov1 (GeneID 43067) #1
- droplet/nuclear area B-score, replicate 1: -0.853
- droplet/nuclear area B-score, replicate 2: -1.1

CHKov1 (GeneID 43067) #2
- droplet/nuclear area B-score, replicate 1: 1.64
- droplet/nuclear area B-score, replicate 2: -1.45

CHKov1 (GeneID 43067) #3
- droplet/nuclear area B-score, replicate 1: 0.0687
- droplet/nuclear area B-score, replicate 2: 0.847

CHKov1 (GeneID 43067) #4
- droplet/nuclear area B-score, replicate 1: 0.159
- droplet/nuclear area B-score, replicate 2: 0.853

CG6962 (GeneID 41436)
- droplet/nuclear area B-score, replicate 1: -0.0699
- droplet/nuclear area B-score, replicate 2: 0.727

The listing continues:
target gene | reagent | droplet/nuclear area B-score, replicate 1 | droplet/nuclear area B-score, replicate 2 | droplet/nuclear area B-score, replicate 3
CG18131 (GeneID 33331) | 1 | 1.15 | -1.66 | –
CG18131 (GeneID 33331) | 2 | -0.391 | -0.00543 | –
Sems (GeneID 40315) | 1 | -0.601 | -3.14 | –
CG13108 (GeneID 34240) | 1 | -0.124 | 0.49 | –
CG8620 (GeneID 50310) | 1 | -0.455 | -3.74 | –
CG3088 (GeneID 39115) | 1 | 0.359 | -1.01 | –
NfI (GeneID 43782) | 1 | -1.23 | 0.292 | –
GNBP3 (GeneID 39020) | 1 | 0.868 | 1.47 | –
Grp170 (GeneID 31215) | 1 | 2.59 | 0.685 | –
CG4362 (GeneID 42410) | 1 | -1.42 | 0.0292 | –
CG34327 (GeneID 5740714) | 1 | 1.01 | -1.27 | –
CG34327 (GeneID 5740714) | 2 | -0.096 | -1.63 | –
CG14778 (GeneID 31100) | 1 | -0.988 | -0.322 | –
CG15657 (GeneID 37408) | 1 | 1.51 | 0.0814 | –
Ctl1 (GeneID 38523) | 1 | 1.07 | -1.33 | –
CG13871 (GeneID 37303) | 1 | 0.105 | 4.28 | –
CG34459 (GeneID 5740101) | 1 | 0.524 | -2.04 | –
Mvb12 (GeneID 32791) | 1 | 0.909 | -0.527 | –
CG15344 (retired record) (GeneID 31769) | 1 | -0.952 | 0.46 | –
pyx (GeneID 38037) | 1 | 0.0289 | 0.146 | –
pyx (GeneID 38037) | 2 | 0.749 | 0.215 | –
Abl (GeneID 45821) | 1 | -0.33 | 0.328 | –
Abl (GeneID 45821) | 2 | 0.7 | -0.22 | –
Femcoat (GeneID 31367) | 1 | 0.874 | 1.24 | –
CG15514 (GeneID 43531) | 1 | -1.2 | – | –
TER94 (GeneID 36040) | 1 | 0.507 | -0.237 | –
CG13300 (GeneID 38730) | 1 | 2.34 | 2.71 | –
CG7544 (GeneID 36680) | 1 | -0.0172 | 0.034 | –
mspo (GeneID 36632) | 1 | -0.637 | -2.11 | –
CG6108 (retired record) (GeneID 34733) | 1 | -2.03 | 0.393 | –
BoYb (GeneID 40512) | 1 | 0.553 | 1.21 | -0.57
pira (GeneID 32229) | 1 | 1.14 | -0.811 | -0.447
CG32801 (GeneID 31152) | 1 | -0.925 | -0.0647 | –
CG3355 (GeneID 33667) | 1 | -1.44 | -0.571 | –
CG6870 (GeneID 35067) | 1 | -0.149 | -1.41 | –
CG31740 (GeneID 261618) | 1 | 0.397 | -1.01 | –
CG9641 (GeneID 33502) | 1 | 0.0787 | -0.0714 | –
EndoGI (GeneID 34953) | 1 | -0.633 | -0.778 | –
CG42342 (GeneID 7354466) | 1 | -2.26 | 1.5 | –
CG42342 (GeneID 7354466) | 2 | -0.403 | -1.15 | –
CG42342 (GeneID 7354466) | 3 | -0.0228 | 0.22 | –
CG42342 (GeneID 7354466) | 4 | 0.913 | 0.0192 | –
CG42342 (GeneID 7354466) | 5 | 0.972 | -2.51 | –
CG42342 (GeneID 7354466) | 6 | 0.00366 | 0.0308 | –
CG42342 (GeneID 7354466) | 7 | 3.77 | -2.93 | –
CG42342 (GeneID 7354466) | 8 | 0.167 | 0.535 | –
Spn88Eb (GeneID 41829) | 1 | – | 0.57 | –
CG4218 (GeneID 34848) | 1 | 0.242 | 0.648 | –
CG34126 (GeneID 318872) | 1 | 0.0452 | -0.93 | –
CG34126 (GeneID 318872) | 2 | -0.0767 | -1.08 | –
CG15115 (GeneID 37192) | 1 | 1.36 | 0.859 | –
oys (GeneID 36045) | 1 | -0.423 | -0.818 | –
oys (GeneID 36045) | 2 | 0.318 | 0.18 | –
